Measurements reported in PubChem BioAssay AID2685 (National Center for Advancing Translational Sciences (NCATS), 2010).
The whole screen tested about 320,000 compounds, of which about 2,100 (0.66%) were called active. Inconclusive results, whose numbers are uncertain, are shown with a selection of clear calls. Calls follow the shape of the dose curve; as a rule, active = well fitted inhibition curve with a large enough effect in the signal ratio, with a control signal flat (not every such curve was filed as active); inconclusive = small, poorly fitted or top-dose-only effect, or effect the other way, or a change in a side signal; inactive = flat fitted curve, though single readings scatter; the % refers to the signal ratio. Potencies beside an inconclusive call are fits to weak or partial responses and may not hold up.

Assay: qHTS Assay for Lipid Storage Modulators in Drosophila S3 Cells
Conditions: BODIPY lipid droplet fluorescence, 18-24 h, cells fed with added oleic acid; lipid storage change, negative = inhibition: at 46.1 µM (top of the series) unless noted
Method in brief: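 Laser-scanning cytometry quantifies lipid droplet accumulation (500–530 nm total intensity; droplet/cell object ratio) in oleic acid-fed (400 uM added) Drosophila S3 cells treated with a concentration series. 20 uM Triacsin C defined 100% inhibition.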
% is scaled to controls: 0 for no effect and ±100 for the full control effect; potency is read from the fitted curve at half-maximal effect.

With `CN(C)C(=O)c1cccn(Cc2cccc(C(F)(F)F)c2)c1=O` as the molecule, how does the lipid storage change, negative = inhibition read?
Its lipid storage change, negative = inhibition is inconclusive: -13.2%.

Which Potency does the source give for `COC(=O)c1sccc1NC(=O)Nc1ccc(F)cc1` here?
The Potency was inconclusive: 0.58 µM [activator, single point].

With `COc1cc(NC2CCCCC2O)c2nc(-c3ccc(Cl)cc3)ccc2c1` (configuration not stated) as the molecule, how does the Potency read?
Its Potency is active: 14.6 µM.

Which lipid storage change, negative = inhibition does the source give for `Cc1ccc(/C=N/n2c(C)cc(C)c(C#N)c2=O)cc1` here?
The lipid storage change, negative = inhibition was inconclusive: 8.81%.

For `CCN(C(=O)COC(=O)c1cc(-c2ccc3cc(OC)ccc3c2)nc2ccccc12)C1CCS(=O)(=O)C1` (configuration not stated), which lipid storage change, negative = inhibition is on record?
The lipid storage change, negative = inhibition was inconclusive: 24.1%.

For `CC(C)C(OC(=O)c1nsc(Cl)c1Cl)C(=O)NCc1ccc2c(c1)OCO2` (configuration not stated), which lipid storage change, negative = inhibition is on record?
The lipid storage change, negative = inhibition was inconclusive: 39.5%.

For `COc1cc2c(cc1NC(=O)/C=C/c1ccccc1)oc1ccccc12`, which lipid storage change, negative = inhibition is on record?
Its lipid storage change, negative = inhibition is inconclusive: -37%.

For `Nc1ccc(OCCc2ccccc2)cc1`, which lipid storage change, negative = inhibition is on record?
Its lipid storage change, negative = inhibition is inconclusive: 24.4%.

For `CCOc1ccccc1NC(=O)CCS(=O)(=O)c1cccc2nonc12`, which Potency is on record?
Its Potency is inconclusive: 2.31 µM [activator, full curve].

For `Cc1c(C(=O)NCC2COc3ccccc3O2)oc2ccc(S(=O)(=O)N3CC(C)CC(C)C3)cc12` (configuration not stated), which “outcome” value is on record?
Its value is “inactive [at 46.1 µM]”.

Which lipid storage change, negative = inhibition does the source give for `CC1Nc2ncnc(N3CCOCC3)c2N(Cc2ccc(Cl)cc2)C1=O` (configuration not stated) here?
Its lipid storage change, negative = inhibition is inconclusive: 11.9%.

For `COC(=O)c1ccc(CC(=O)c2nc3ccccc3s2)cc1`, which Potency is on record?
The Potency was inconclusive: 1.3 µM [activator, full curve, poor fit].

For `CCOC(=O)/C(C(N)=NCCO)=C(/O)c1ccccc1`, which lipid storage change, negative = inhibition is on record?
The lipid storage change, negative = inhibition was inconclusive: -3.46%.

For `COc1cccc(NS(=O)(=O)c2nc3nc(C)cc(C)n3n2)c1`, which lipid storage change, negative = inhibition is on record?
Its lipid storage change, negative = inhibition is inconclusive: -15.3%.

With `COc1ccc(Nc2cc(C(=O)NC3CCCC3)c3ccccc3n2)c(OC)c1` as the molecule, how does the lipid storage change, negative = inhibition read?
Its lipid storage change, negative = inhibition is inconclusive: 25.2%.

Which lipid storage change, negative = inhibition does the source give for `Clc1ccc(-c2c[n+](Cc3cccc(Cl)c3)c3n2CCC3)cc1` here?
The lipid storage change, negative = inhibition was inconclusive: 2.6%.

Which lipid storage change, negative = inhibition does the source give for `COc1cc2c(C(=O)NCc3ccc4c(c3)OCO4)cn(CC(C)C)c(=O)c2cc1OC` here?
Its lipid storage change, negative = inhibition is inconclusive: -54.9%.

Which lipid storage change, negative = inhibition does the source give for `Cc1ccc(COc2ccc(CNCCCN3CCCCCC3=O)cc2)cc1` here?
Its lipid storage change, negative = inhibition is inconclusive: 11.8%.

For `CC1CCCC(C)N1NC(=S)Nc1ccc(OC(F)F)cc1` (configuration not stated), which Potency is on record?
Its Potency is inconclusive: 2.31 µM [falling, partial curve, poor fit].

For `O=C(CSc1nnc2c(n1)[nH]c1ccc(F)cc12)OCc1ccccc1`, which Potency is on record?
Its Potency is inconclusive: 2.31 µM [falling, full curve].

Which Potency does the source give for `COC(=O)C1=C(C)N(Cc2ccco2)C(=O)C1` here?
The Potency was inconclusive: 29.1 µM [falling, single point].

With `Cc1ccc(C(C)C)c(OCCCN2C(=O)NC(C)(C)C2=O)c1` as the molecule, how does the lipid storage change, negative = inhibition read?
Its lipid storage change, negative = inhibition is inconclusive: -2.13%.
